In all, about 400,000 compounds went through this assay and about 13,000 (3.2%) were called active. Inconclusive means that the source gave no clear call. Such entries were picked first, then a sample of the others. Calls follow the shape of the dose curve; as a rule, active = well fitted cell-killing curve with a large enough effect; inconclusive = small, poorly fitted or top-dose-only effect, or effect the other way; inactive = flat fitted curve, though single readings scatter. A potency beside an inconclusive call is a rough fit, not a confirmed value.
Experiment: qHTS assay for MDR1-selective chemotherapeutics: Primary screen using the drug-selected MDR subline cells KB-V1; also: nearly all actives have a fitted effect of over 60% in size
Settings: KB-V1 MDR cells viability, CellTiter-Glo, 72 h; activity change, negative = cytotoxicity: at 46.1 µM (top of the series)
In short: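 Cells of the MDR subline KB-V1 are plated, dosed with compound at multiple concentrations, and incubated 72 h at 37 degrees C; CellTiter-Glo is then added and luminescence read after 10 min.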
% is scaled to controls: 0 for no effect and ±100 for the full control effect; potency is read from the fitted curve at half-maximal effect.

SMILES | Potency | activity change, negative = cytotoxicity
CN(C)CCNC(=O)Cn1ccc2cc(S(=O)(=O)N3CCCCCC3)ccc21 | inconclusive: 8.2 µM [rising, partial curve, poor fit] | 
O=[N+]([O-])c1cccc(-c2ccc(SCc3ccccn3)nn2)c1 | inconclusive: 20.6 µM [cytotoxic, single point] | 
Cc1ccc(SCCSc2nc(C)cc(=O)[nH]2)cc1 | inconclusive: 29.1 µM [rising, single point] | 
CCOc1ccccc1NC(=O)CCc1c(C)nn(-c2ccc(N3CCCCC3)nn2)c1C | inconclusive: 29.1 µM [cytotoxic, single point] | 
O=C(CSC(=S)N1CCCC1)NCC(=O)Nc1ccccc1Br | inconclusive: 20.6 µM [cytotoxic, single point] | 
CCN(CCO)CC1CCCC2CCCCC21 (stereo not given) |  | inactive: -12.1%
Cc1oc2ccc(OS(C)(=O)=O)cc2c1C(=O)OC(C)C | active: 13 µM | 
Cc1cccc(OC(=O)CCN2C(=O)C3C4C=CC(C5CC45)C3C2=O)c1C (stereo not given) | inconclusive: 20.6 µM [rising, single point] | 
CC(/C=N/n1c(C2CCCCC2)n[nH]c1=S)=C\c1ccccc1 |  | inactive: 0%
O=C(NCC(=O)N1CCCCCCC1)c1cccc([N+](=O)[O-])c1 | active: 20.6 µM | 
COc1ccc(OC)c(/C=N\Nc2nccs2)c1 |  | inactive: -3.6%
CCC(=O)O[C@]1(C(=O)CCl)[C@@H](C)C[C@H]2[C@@H]3CCC4=CC(=O)C=C[C@]4(C)[C@@]3(F)[C@@H](O)C[C@@]21C | inconclusive: 10.3 µM [cytotoxic, partial curve] | 
CC(C)C[C@H](NC(=O)c1[nH]cnc1C(=O)Nc1ccc(Cl)cc1)C(=O)OC(C)(C)C | inconclusive: 25.9 µM [cytotoxic, partial curve, poor fit] | 
CNc1ccc(Br)cc(C(=O)/C=C/c2cccc(OC)c2)c1=O | inconclusive: 20.6 µM [cytotoxic, single point] | 
COc1ccc(-c2noc(-c3ccc(N4CCCC4)c([N+](=O)[O-])c3)n2)cc1OC | inconclusive: 10.3 µM [rising, partial curve, poor fit] | 
COc1cccc(NC(=O)CN(C)C(=O)CN2C(=O)NC(C)(c3ccc4ccccc4c3)C2=O)c1 (stereo not given) |  | inactive: 11.5%
Nc1ccc2c(c1)Cc1cc(N)c(Cl)cc1-2 | inconclusive: 18.4 µM [cytotoxic, partial curve] | 
COc1ccc(-c2cc(NC(C)=O)c3ncc(-c4cccc(C(F)(F)F)c4)n3c2)c(OC)c1 |  | inactive: 4.43%
CC(=O)c1ccc(N2CCN(C(=O)CCN3C(=S)NC(C)(C)CC3C)CC2)cc1 (stereo not given) | inconclusive: 20.6 µM [cytotoxic, single point] | 
Cc1ccc[n+](CC(=O)Nc2cccc(Cl)c2)c1 | inconclusive: 29.1 µM [rising, single point] | 
C/C(CC(=O)Nc1cc(C)ccn1)=N\NC(=O)c1ccc(C(C)(C)C)cc1 | inconclusive: 29.1 µM [rising, single point] | 
CC(C)(C)NC(=O)NC(=O)COc1ccccn1 | inconclusive: 25.9 µM [rising, single point] | 
CCOC(=O)Cc1cc(=O)c2cc(C)ccc2[nH]1 | inconclusive: 0.0046 µM [rising, full curve, poor fit] | 

SMILES | Potency | activity change, negative = cytotoxicity
Cc1ccc(C(NC(=O)c2ccccc2)C(Cl)Cl)cc1 (stereo not given) | inconclusive: 13 µM [cytotoxic, partial curve] | 
CCCCN(C(=O)C(C)Oc1ccc(Br)cc1)c1c(N)n(CC(C)C)c(=O)[nH]c1=O (stereo not given) |  | inactive: -25.8%
CC(=O)Nc1cccc(NC(=O)NC2CC(=O)N(c3ccc4c(c3)OCCO4)C2)c1 (stereo not given) |  | inactive: 21.2%
CCCCN(CCCC)S(=O)(=O)c1ccc2oc(C(=O)N3CCOCC3)c(C)c2c1 | active: 4.61 µM | 
COc1ccc(NC(=O)c2ccco2)cc1NC(=O)C(C)(C)Oc1ccc(Cl)cc1 |  | inactive: 9.62%
OCCNCc1cc(Br)ccc1OCc1ccc(Cl)cc1 | active: 9.2 µM | 
c1ccc(-c2ccc3sccc3n2)cc1 | inconclusive: 25.9 µM [rising, single point] | 
CCOC(=O)c1nn(-c2ccccc2)c(=O)cc1SC(C)CC (stereo not given) | inconclusive: 4.61 µM [cytotoxic, partial curve] | 
COC(=O)c1ccc(Cl)c(NC(=O)CN(c2ccc3c(c2)OCO3)S(C)(=O)=O)c1 | inconclusive: 20.6 µM [cytotoxic, single point] | 
COc1ccc(NC2=CC(c3ccc(OC)c(OC)c3)N(c3ccc(OC)cc3)C2=O)cc1 (stereo not given) | inconclusive: 8.2 µM [cytotoxic, partial curve] | 
O=C(c1ccc(Cl)cc1)C1CCN(C(=O)N2CCOCC2)CC1 | inconclusive: 23.1 µM [cytotoxic, single point] | 
CCOC(=O)c1[nH]c(C=O)c(C(=O)OCC)c1C | inconclusive: 29.1 µM [cytotoxic, single point] | 
COc1ccc(Cl)cc1NC(=S)N1CCN(c2ccccn2)CC1 |  | inactive: -18.9%
CC(C)(C)CC(=O)NCCc1csc(-c2ccccc2)n1 |  | inactive: -20%
COc1ccc(C(C)NCCC(c2ccc(OC(C)C)cc2)c2ccccc2OC)cc1 (stereo not given) | active: 16.4 µM | 
CCC(=O)N1CCCc2cc(S(=O)(=O)N3CCC(C(=O)NCc4ccc(F)cc4)CC3)ccc21 |  | inconclusive: -10.3%
CC(NS(=O)(=O)c1ccc2c(c1)CC(C)N2C(=O)C1CC1)c1ccccc1 (stereo not given) | inconclusive: 16.4 µM [cytotoxic, single point] | 
CCOC(=O)c1c(C)[nH]c(C)c1C(=O)COC(=O)/C=C/c1ccc(OC(F)F)cc1 | inconclusive: 16.4 µM [cytotoxic, single point] | 
CC(C)CCOc1ccc(CC(=O)NO)cc1 |  | inactive: 0%
CN(C)CCCC1Sc2ccccc2Sc2ccccc21 (stereo not given) |  | inactive: -23.7%
Cc1csc2nc(O)c(C(=O)NCCC3=CCCCC3)c(=O)n12 | active: 9.2 µM | 
C=CC[C@H](CC(=O)N(CCO)Cc1ccccc1)C(=O)NC[C@H](OC(=O)[C@@H](CC=C)Cc1ccc(F)cc1)c1ccccc1 | inconclusive: 20.6 µM [cytotoxic, single point] | 

Already shown: ten of the compounds above.
SMILES | Potency | activity change, negative = cytotoxicity
O=C(c1ccc(Cl)cc1)C1CCN(C(=O)N2CCOCC2)CC1 | inconclusive: 23.1 µM [cytotoxic, single point] | 
CCOC(=O)c1[nH]c(C=O)c(C(=O)OCC)c1C | inconclusive: 29.1 µM [cytotoxic, single point] | 
COc1ccc(Cl)cc1NC(=S)N1CCN(c2ccccn2)CC1 |  | inactive: -18.9%
CC(C)(C)CC(=O)NCCc1csc(-c2ccccc2)n1 |  | inactive: -20%
COc1ccc(C(C)NCCC(c2ccc(OC(C)C)cc2)c2ccccc2OC)cc1 (stereo not given) | active: 16.4 µM | 
CCC(=O)N1CCCc2cc(S(=O)(=O)N3CCC(C(=O)NCc4ccc(F)cc4)CC3)ccc21 |  | inconclusive: -10.3%
CC(NS(=O)(=O)c1ccc2c(c1)CC(C)N2C(=O)C1CC1)c1ccccc1 (stereo not given) | inconclusive: 16.4 µM [cytotoxic, single point] | 
CCOC(=O)c1c(C)[nH]c(C)c1C(=O)COC(=O)/C=C/c1ccc(OC(F)F)cc1 | inconclusive: 16.4 µM [cytotoxic, single point] | 
CC(C)CCOc1ccc(CC(=O)NO)cc1 |  | inactive: 0%
CN(C)CCCC1Sc2ccccc2Sc2ccccc21 (stereo not given) |  | inactive: -23.7%

Reference: PubChem BioAssay AID1347076 (National Center for Advancing Translational Sciences (NCATS), 2019)
